# PMC7819943, “Rice protein-binding microarrays: a tool to detect cis-acting elements near promoter regions in rice”
# The other results are listed elsewhere or left out.
# Target: T1, OsSMF1 (Oryza sativa, UniProt Q6ZLB0 1-436)
# T1 sequence: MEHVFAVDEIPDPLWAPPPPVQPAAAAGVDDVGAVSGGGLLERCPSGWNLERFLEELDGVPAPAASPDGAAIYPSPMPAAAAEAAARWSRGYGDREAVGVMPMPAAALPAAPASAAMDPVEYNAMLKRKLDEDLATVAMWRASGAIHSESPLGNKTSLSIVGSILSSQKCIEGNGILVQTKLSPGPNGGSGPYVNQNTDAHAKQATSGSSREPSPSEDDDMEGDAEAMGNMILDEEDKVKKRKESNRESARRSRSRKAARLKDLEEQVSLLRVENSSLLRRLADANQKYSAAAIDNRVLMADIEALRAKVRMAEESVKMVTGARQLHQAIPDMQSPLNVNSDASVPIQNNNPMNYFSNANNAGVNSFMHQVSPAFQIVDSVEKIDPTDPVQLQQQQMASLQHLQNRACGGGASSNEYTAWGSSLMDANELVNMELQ
# Experiment: protein-binding microarray (RPBM); PBS, 2% BSA, 51.3 ng/ul salmon testes DNA, 50 uM zinc acetate, 200 nM TF, 25 C, 1 h; high values mean tight binding
# Conditions: protein: recombinant; tags: N-terminal polyhistidine and DsRed monomer fusion (pET32a); chain copies: 2; label: CyDye5-dUTP incorporated in the synthesized complementary strand; 3' TTTTT single-stranded linker to array surface; dsDNA, one strand shown
# In short: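 A custom Agilent array was converted to double-stranded form by primer extension with Cy5-dUTP and blocked with 2% BSA. Protein at 200 nM in PBS with 2% BSA, salmon testes DNA and 50 µM zinc acetate was applied for 1 h at 25 °C, followed by washing. The proteins were polyhistidine–DsRed N-terminal fusions of transcription factors, expressed in E. coli BL21-CodonPlus and Ni–NTA-purified. The binding signal is per-feature fluorescence intensity (arbitrary units) from an Axon 4000B scanner.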
row,Sequence,binding signal
1,TTGGTGGCCGTGGTGGACAAGGGCGCTGACCACGACAGATCGGAGTCACCTAGTGCAG,3240 fluorescence intensity (a.u.)
2,GTCAGTGGCTCAGTGCCACCCGTAGTGTACTGCCACTCCGCGGAGTCACCTAGTGCAG,3370 fluorescence intensity (a.u.)
3,CGGCGGCTATCGTGGGGATGACGAGGGTCGTAGCAGCTACCGGAGTCACCTAGTGCAG,5530 fluorescence intensity (a.u.)
4,TACTCGGTCAGAATCTGTCATACTGATGTGGTCATCGAGACGGAGTCACCTAGTGCAG,4090 fluorescence intensity (a.u.)
5,GCGTCACGTTCCTGTCGGCGGCGGCCAACGTGGCCCGCGTCGGAGTCACCTAGTGCAG,15200 fluorescence intensity (a.u.)
6,GGGAAGACGGTGGGGCGGGGACAGAGGTAGGGGAAGGAGGCGGAGTCACCTAGTGCAG,4820 fluorescence intensity (a.u.)
7,TATACAGTATTCAGTCAGACTAAGTTAAACTCTTTGTCGCCGGAGTCACCTAGTGCAG,3380 fluorescence intensity (a.u.)
8,GGAGATCTCATCAAACCATCTCGACAAAGGTCTCGCCGGTCGGAGTCACCTAGTGCAG,3230 fluorescence intensity (a.u.)
9,CTTACTTTGTCTGTGTAAACAATGTAGGTGAGCTGTAGCGCGGAGTCACCTAGTGCAG,3150 fluorescence intensity (a.u.)
10,AGGACCAGGAGAATACTGCCATTGGTGATGACTACAATGACGGAGTCACCTAGTGCAG,4250 fluorescence intensity (a.u.)
11,AAGGCTCTTAGGTGCGGTGTGACAGTCCACCTGTAGAGTGCGGAGTCACCTAGTGCAG,3310 fluorescence intensity (a.u.)
12,GCTGGGTTTTCGAGGAGGCCTGACTGGATCATACTCGACTCGGAGTCACCTAGTGCAG,3250 fluorescence intensity (a.u.)
13,TAATAGATTTAATCATGTGCTGATGACATTATTATGATTCCGGAGTCACCTAGTGCAG,4280 fluorescence intensity (a.u.)
14,CATATATATCTGACTAAAACGGTATATGTTGCACGTAGTGCGGAGTCACCTAGTGCAG,3360 fluorescence intensity (a.u.)
15,CGTTCCACCGCCGCGCCTCTTCCCCGCCCCGATCGGCTGCCGGAGTCACCTAGTGCAG,3660 fluorescence intensity (a.u.)
16,TAGGAGTAACAAGCTAGAGCAAATGATTGCATCACATTGACGGAGTCACCTAGTGCAG,3200 fluorescence intensity (a.u.)
17,CTCCGCGTCTAGCCGCGGGTGACGTCAGCACCACCACCATCGGAGTCACCTAGTGCAG,17500 fluorescence intensity (a.u.)
18,GAAACCCTGTCACAAGCCGATGTGCACCATGTAAAGCCACCGGAGTCACCTAGTGCAG,11300 fluorescence intensity (a.u.)
19,GATTTGTGATGATTATTCGTGATTTGCGATAAATGGTCCCCGGAGTCACCTAGTGCAG,3380 fluorescence intensity (a.u.)
20,AATGGCAACGATAACAATAGTGCGCATCACGATAGGGGAGCGGAGTCACCTAGTGCAG,33500 fluorescence intensity (a.u.)
21,TTGTTCCATGTGTAGGTGACTCGATGTCTCGGGAGAGTATCGGAGTCACCTAGTGCAG,3230 fluorescence intensity (a.u.)

row,Sequence,binding signal
1,AAGTTGGGTTTCGGATCTTGGAAGGTTAGGAGATACAGTACGGAGTCACCTAGTGCAG,6930 fluorescence intensity (a.u.)
2,AATGGAGTTGCGGCGGCCGACGTCAAATCGAGTGGCGTAGCGGAGTCACCTAGTGCAG,3370 fluorescence intensity (a.u.)
3,GAAGCATCTCCCCACCTGTCAGTGATAGTATCCGTGTCCTCGGAGTCACCTAGTGCAG,3560 fluorescence intensity (a.u.)
4,GCTTTGGGCTATAATTGGGCCATTTGTCGTCAGCTCTTGGCGGAGTCACCTAGTGCAG,3230 fluorescence intensity (a.u.)
5,GTCGGAGATCATCGTCAGCGGTCAGCCTGCTGGCGCCGTGCGGAGTCACCTAGTGCAG,3970 fluorescence intensity (a.u.)
6,AGATAGTCCTACATGTCATCCTCACAAGTACTCCCTCCGTCGGAGTCACCTAGTGCAG,3650 fluorescence intensity (a.u.)
7,CAAATCACTCCACTCCTCCACTCATACACCACCACACTGCCGGAGTCACCTAGTGCAG,16700 fluorescence intensity (a.u.)
8,GAAGCATGCCAGATGATGTCATAAACCTGGGAGACACCACCGGAGTCACCTAGTGCAG,7870 fluorescence intensity (a.u.)
9,CCCGTCGTTGTCCACCCCGTCCCATTCCACGACCGTCGTCCGGAGTCACCTAGTGCAG,3390 fluorescence intensity (a.u.)
10,GGCCACGAATTACACCAAAATGAATACGTGGATGTAAATTCGGAGTCACCTAGTGCAG,3360 fluorescence intensity (a.u.)
11,AGAATAAAATTATATTTTGCCGTGTAATCCCAATTGCTAACGGAGTCACCTAGTGCAG,3270 fluorescence intensity (a.u.)
12,GGAGGAGTGGTCGCCGGGGATCATCGCGCGGCGTCACCGGCGGAGTCACCTAGTGCAG,3570 fluorescence intensity (a.u.)
13,ACTGGATCTGCCGTCACCAAGCCCCGCCGCCACGGTCGCCCGGAGTCACCTAGTGCAG,4280 fluorescence intensity (a.u.)
14,AAAGTCATGGGGCGAGAGCTGACTGTGCCGTGGGCTCCAGCGGAGTCACCTAGTGCAG,3650 fluorescence intensity (a.u.)
15,CCCCAATGCATTTCTCTCTCTACCTGCGTGTTTGACTGCACGGAGTCACCTAGTGCAG,3250 fluorescence intensity (a.u.)
16,GGTAGGGATGAGCTCGGCGGCGGCACGTGGCTGGGGTGCACGGAGTCACCTAGTGCAG,4410 fluorescence intensity (a.u.)
17,TCTCATCCGTGACAGTTCGTAACTGTCACCCTTCATAGATCGGAGTCACCTAGTGCAG,3430 fluorescence intensity (a.u.)
18,TTGGGGTTAACCTGGTCTGAATCGGTGATGTGGGAGGGGACGGAGTCACCTAGTGCAG,3840 fluorescence intensity (a.u.)
19,CCGATGCTCGGTCAGCAAAACTGCTGATCCGTAAAATCACCGGAGTCACCTAGTGCAG,3250 fluorescence intensity (a.u.)
20,ACGGTGCGGTGACGCCGGTGGCCGGGTGGGTGCGGGATGCCGGAGTCACCTAGTGCAG,3270 fluorescence intensity (a.u.)
21,GGGTCATTTGTCCCTTTCTGGAATGAAGTGCTTTGTAAAACGGAGTCACCTAGTGCAG,33100 fluorescence intensity (a.u.)

# 2 records drawn at random from the list so far, as already listed:
row,Sequence,binding signal
3,GAAGCATCTCCCCACCTGTCAGTGATAGTATCCGTGTCCTCGGAGTCACCTAGTGCAG,3560 fluorescence intensity (a.u.)
7,CAAATCACTCCACTCCTCCACTCATACACCACCACACTGCCGGAGTCACCTAGTGCAG,16700 fluorescence intensity (a.u.)
